Assay results published in patent US11584916B2, “Method of making in vivo human small intestine organoids from pluripotent stem cells” (Children's Hospital Medical Center, priority 2014, dated 2023).
“Also recorded” adds a separate entry of the source. For at least one compound, name, drawing or mass did not settle the structure.

Experiments:
[1] = tested on: vagal-level Hox genes HOXB3, HOXB5, and HOXB7; test: Posteriorization of human PSC-derived neurospheres/NCCs, Hox gene expression by qRT-PCR; format: cell-based; settings: two days (48 hours) at the neurosphere stage, RA 2 μM
Protocol: Cells were fed mTeSR1 media and routinely passaged using Dispase II (Gibco). NCCs and HIOs were generated and combined at an early stage of intestinal differentiation to generate HIOs containing ENS. Briefly, for NCC generation (FIG. 1), hPSCs were treated with collagenase IV (500 U/mL) in mTeSR1 for 60 min to detach colonies. Cells were washed to remove collagenase, then gently triturated and resuspended in neural induction media on non-TC treated petri dishes. Neural induction media was changed daily and retinoic acid (2 μM) was added on days 4 and 5 for posteriorization. Day 6 free-floating neurospheres were plated on fibronectin (3 μg/cm2) and fed neural induction media without RA for 4 days. Migrated cells were collected using a brief Accutase treatment (2-3 min) and passaged onto fibronectin or used immediately for combining with HIOs. NCCs were differentiated essentially as described for neuroglial 9 and mesenchymal lineages 36. […] Following the formation of gut tube spheroids, Applicant gently centrifuged spheroids +/−NCCs and embedded them in Matrigel. […]
Total RNA from cells and organoids was isolated using NucleoSpin RNA isolation Kit (Macherey-Nagel). […] Applicant performed qPCR using QuantiTect SYBR Green PCR Kit (Qiagen) on a BioRad CFX96 Real-Time PCR Detection System. […]

[2] = tested on: vagal-level Hox genes HoxB3 and HoxB7; test: Chick cranial NCC culture, Hox gene expression; format: cell-based; settings: 2 μM RA or 4 ng/mL FGF4 for 48 hours
Protocol: Chicken eggs were purchased from Charles River and incubated at 39° C. until they reached the desired Hamburger and Hamilton stage. For chicken NCC culture, dorsal neural tubes from cranial or trunk region of HH8 embryos were dissected by Gastromaster and cultured on matrigel-coated tissue culture dish with NCC culture medium (BajPai R et al, 2010) for 24 hours. The neural ectoderm was scrapped off the plate by tungsten needle after NCCs migrated out from the neural tube explants. The NCCs remained on the plate were then treated with 4 ng/mL FGF4 or 2 μM Retinoic acid for 48 hours. For NCCs injection, GFP-labeled human PSC-derived NCCs were collected and injected intersomitically into HH10-12 chicken embryos. The embryos were harvested around HH38 for analysis.

SMILES: CC1=C(/C=C/C(C)=C/C=C/C(C)=C/C(=O)O)C(C)(C)CCC1 [RA, retinoic acid]
- expression of vagal-level Hox genes in human PSC-derived NCCs [1]: robust expression
- expression of vagal-level Hox genes in human PSC-derived NCCs ([1]; listed as retinoic acid): induces Hox A2, B3, B5 and B7
- Hox gene expression in chick cranial NCCs [2]: express vagal-level Hox genes HoxB3 and HoxB7; also recorded: able to induce vagal Hox gene expression
